Reference: the supplement of paper PMC10849652
Some of the results follow.

By UniProt entry, the sequences of proteins in these tests, tags left out. Where a name states a change or a piece, a line headed by the entry shows the natural chain unless it says otherwise.
UniProt Q9Y371: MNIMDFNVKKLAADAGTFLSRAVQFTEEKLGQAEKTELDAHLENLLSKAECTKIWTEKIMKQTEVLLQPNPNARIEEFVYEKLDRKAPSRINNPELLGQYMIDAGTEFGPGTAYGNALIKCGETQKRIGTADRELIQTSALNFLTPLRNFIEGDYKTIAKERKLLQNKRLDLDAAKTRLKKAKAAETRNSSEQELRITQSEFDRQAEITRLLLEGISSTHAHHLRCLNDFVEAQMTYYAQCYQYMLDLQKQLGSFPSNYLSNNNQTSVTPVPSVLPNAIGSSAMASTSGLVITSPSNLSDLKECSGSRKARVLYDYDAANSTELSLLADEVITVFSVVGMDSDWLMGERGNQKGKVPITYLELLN
UniProt Q9UGP8: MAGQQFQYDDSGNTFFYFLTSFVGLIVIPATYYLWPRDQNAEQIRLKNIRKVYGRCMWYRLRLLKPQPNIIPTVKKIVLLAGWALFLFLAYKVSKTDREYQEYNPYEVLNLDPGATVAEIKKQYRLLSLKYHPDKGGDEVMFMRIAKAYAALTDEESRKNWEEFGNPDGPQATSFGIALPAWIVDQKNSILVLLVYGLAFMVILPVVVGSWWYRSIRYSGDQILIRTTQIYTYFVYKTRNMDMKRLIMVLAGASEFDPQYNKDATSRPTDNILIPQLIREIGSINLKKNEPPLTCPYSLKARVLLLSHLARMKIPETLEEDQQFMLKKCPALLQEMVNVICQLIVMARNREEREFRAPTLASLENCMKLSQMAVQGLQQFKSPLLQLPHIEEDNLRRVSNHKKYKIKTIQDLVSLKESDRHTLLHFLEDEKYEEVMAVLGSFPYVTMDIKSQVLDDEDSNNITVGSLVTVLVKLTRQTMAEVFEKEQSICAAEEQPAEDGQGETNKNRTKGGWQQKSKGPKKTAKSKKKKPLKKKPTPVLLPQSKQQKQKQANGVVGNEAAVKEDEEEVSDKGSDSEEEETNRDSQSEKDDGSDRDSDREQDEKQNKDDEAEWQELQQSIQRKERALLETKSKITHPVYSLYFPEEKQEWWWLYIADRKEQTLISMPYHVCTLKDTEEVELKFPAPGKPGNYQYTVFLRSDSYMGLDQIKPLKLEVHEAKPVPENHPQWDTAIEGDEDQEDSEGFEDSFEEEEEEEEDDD
UniProt Q9H173: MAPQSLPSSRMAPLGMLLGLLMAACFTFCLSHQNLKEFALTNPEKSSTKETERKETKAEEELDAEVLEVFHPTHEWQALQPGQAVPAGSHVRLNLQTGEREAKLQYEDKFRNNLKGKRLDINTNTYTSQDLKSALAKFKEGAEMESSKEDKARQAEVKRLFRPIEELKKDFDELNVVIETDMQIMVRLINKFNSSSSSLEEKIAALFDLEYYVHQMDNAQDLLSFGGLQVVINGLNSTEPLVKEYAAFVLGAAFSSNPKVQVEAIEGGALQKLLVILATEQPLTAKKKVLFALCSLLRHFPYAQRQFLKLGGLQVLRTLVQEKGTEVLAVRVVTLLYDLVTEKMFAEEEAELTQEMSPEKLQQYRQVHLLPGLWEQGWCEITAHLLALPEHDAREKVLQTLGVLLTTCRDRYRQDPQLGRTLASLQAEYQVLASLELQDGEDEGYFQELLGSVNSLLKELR
UniProt Q15393: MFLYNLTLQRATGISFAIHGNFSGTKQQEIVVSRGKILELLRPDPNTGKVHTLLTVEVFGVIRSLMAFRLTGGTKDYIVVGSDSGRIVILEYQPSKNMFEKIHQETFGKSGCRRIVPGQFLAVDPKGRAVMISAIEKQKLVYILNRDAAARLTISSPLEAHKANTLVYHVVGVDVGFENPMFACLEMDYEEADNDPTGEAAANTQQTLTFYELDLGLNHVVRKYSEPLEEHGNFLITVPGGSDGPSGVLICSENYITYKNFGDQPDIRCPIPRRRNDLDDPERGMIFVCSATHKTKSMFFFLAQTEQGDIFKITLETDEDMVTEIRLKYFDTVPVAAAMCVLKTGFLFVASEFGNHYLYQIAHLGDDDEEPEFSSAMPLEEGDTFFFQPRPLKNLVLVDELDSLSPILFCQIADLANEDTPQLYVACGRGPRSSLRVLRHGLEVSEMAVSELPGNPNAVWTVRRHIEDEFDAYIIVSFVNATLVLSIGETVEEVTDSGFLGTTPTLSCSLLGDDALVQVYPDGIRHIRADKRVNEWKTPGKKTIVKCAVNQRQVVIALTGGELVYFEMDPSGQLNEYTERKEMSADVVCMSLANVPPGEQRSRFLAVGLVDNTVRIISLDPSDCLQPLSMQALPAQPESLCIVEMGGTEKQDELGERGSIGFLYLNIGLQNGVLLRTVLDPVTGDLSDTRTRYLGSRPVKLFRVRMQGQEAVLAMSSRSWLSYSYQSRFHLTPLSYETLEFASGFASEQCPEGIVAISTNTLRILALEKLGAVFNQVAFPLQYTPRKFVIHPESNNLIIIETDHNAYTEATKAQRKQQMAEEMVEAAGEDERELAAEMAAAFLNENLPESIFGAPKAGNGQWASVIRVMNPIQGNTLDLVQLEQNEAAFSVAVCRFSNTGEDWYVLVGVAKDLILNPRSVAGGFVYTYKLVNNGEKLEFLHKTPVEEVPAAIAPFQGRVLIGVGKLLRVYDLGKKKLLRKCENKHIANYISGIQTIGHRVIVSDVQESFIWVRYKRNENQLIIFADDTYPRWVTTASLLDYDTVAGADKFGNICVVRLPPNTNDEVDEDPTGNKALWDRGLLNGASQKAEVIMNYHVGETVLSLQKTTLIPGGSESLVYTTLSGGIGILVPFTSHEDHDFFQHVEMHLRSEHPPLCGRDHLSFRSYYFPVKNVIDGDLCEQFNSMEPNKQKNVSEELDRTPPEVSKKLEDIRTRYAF
UniProt O43236: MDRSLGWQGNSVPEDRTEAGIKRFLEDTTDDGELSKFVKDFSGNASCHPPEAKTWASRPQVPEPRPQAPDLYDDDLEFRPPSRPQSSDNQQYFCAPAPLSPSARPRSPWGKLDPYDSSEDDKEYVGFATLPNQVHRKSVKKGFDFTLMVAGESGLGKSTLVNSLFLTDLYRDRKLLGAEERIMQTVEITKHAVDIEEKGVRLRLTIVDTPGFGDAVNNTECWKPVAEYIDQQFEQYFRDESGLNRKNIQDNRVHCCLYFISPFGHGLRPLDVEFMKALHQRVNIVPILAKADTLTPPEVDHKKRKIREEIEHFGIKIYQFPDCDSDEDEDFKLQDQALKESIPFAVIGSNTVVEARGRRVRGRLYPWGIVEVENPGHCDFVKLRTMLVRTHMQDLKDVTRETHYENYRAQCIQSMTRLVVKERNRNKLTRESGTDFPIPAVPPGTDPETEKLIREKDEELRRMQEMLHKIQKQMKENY
UniProt P84101: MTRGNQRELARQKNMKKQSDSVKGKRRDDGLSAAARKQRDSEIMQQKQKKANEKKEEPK
UniProt Q15637: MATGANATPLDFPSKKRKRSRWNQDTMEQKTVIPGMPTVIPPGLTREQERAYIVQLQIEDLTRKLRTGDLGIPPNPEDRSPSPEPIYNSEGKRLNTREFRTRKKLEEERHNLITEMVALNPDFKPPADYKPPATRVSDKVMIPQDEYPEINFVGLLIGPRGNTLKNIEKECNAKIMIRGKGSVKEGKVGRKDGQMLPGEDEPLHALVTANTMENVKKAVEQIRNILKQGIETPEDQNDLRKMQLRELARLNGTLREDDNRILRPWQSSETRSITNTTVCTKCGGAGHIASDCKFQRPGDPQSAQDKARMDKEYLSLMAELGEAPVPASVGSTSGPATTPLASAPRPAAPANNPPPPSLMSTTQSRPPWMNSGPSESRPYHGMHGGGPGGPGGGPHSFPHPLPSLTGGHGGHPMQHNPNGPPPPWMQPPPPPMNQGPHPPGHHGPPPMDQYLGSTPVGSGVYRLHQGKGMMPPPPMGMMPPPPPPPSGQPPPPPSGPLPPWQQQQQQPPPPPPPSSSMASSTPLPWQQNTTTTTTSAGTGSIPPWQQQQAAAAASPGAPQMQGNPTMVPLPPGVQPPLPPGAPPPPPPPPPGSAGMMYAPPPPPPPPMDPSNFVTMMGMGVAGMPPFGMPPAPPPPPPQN
UniProt O75368: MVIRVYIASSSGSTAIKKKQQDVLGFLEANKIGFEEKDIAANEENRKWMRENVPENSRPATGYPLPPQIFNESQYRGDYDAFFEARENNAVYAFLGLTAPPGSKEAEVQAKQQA
UniProt Q92599: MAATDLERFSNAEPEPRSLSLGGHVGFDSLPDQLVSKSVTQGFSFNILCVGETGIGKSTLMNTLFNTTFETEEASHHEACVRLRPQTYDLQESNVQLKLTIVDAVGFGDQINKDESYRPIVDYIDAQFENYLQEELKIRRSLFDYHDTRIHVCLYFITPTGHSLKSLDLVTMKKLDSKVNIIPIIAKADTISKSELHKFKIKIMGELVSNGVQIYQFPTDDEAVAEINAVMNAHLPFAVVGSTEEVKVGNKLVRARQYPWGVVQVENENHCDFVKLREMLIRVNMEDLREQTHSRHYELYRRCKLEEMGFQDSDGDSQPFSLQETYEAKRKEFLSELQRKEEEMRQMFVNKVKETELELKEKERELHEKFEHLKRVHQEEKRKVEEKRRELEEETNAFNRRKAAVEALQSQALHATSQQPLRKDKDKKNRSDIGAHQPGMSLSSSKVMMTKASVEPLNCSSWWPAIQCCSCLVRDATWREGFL
UniProt Q7L8J4: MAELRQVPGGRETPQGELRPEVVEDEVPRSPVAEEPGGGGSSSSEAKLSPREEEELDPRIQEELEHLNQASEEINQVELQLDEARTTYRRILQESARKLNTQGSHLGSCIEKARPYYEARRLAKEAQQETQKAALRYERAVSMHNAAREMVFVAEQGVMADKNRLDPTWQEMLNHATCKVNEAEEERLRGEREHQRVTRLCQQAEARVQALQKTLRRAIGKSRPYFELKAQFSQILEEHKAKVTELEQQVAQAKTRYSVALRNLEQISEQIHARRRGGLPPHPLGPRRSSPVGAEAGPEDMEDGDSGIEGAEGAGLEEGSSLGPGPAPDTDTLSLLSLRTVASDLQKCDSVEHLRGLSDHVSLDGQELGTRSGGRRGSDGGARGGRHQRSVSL
UniProt Q9NPR2: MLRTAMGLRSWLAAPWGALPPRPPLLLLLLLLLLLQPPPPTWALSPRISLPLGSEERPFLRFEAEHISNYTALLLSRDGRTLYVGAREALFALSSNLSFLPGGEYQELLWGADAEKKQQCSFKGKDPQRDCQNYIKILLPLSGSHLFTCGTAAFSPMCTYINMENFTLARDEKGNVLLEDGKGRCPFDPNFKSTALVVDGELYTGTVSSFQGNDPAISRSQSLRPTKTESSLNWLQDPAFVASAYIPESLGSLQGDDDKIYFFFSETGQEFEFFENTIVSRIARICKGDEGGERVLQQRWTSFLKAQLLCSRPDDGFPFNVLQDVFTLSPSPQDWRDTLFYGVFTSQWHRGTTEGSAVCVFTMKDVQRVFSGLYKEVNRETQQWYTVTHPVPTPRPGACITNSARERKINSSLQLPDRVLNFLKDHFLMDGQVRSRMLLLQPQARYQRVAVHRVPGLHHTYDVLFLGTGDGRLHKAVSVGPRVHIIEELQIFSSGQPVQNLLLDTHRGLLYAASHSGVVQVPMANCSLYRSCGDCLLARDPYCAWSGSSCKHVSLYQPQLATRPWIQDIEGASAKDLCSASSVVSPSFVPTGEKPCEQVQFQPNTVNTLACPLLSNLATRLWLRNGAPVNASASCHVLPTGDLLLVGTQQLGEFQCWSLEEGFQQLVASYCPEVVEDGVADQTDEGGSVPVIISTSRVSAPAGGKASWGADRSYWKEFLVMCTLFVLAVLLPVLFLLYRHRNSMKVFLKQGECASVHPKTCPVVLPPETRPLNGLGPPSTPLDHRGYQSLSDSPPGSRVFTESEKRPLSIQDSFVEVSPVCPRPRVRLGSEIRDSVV
UniProt Q96NB2: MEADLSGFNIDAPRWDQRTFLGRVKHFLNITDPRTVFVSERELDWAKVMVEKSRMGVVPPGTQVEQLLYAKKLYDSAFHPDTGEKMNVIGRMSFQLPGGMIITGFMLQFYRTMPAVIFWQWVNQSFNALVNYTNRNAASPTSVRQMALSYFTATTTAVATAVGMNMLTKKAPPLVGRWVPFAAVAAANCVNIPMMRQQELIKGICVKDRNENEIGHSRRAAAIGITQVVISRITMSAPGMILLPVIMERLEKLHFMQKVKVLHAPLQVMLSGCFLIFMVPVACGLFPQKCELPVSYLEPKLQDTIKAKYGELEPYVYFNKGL
UniProt Q9P0V9: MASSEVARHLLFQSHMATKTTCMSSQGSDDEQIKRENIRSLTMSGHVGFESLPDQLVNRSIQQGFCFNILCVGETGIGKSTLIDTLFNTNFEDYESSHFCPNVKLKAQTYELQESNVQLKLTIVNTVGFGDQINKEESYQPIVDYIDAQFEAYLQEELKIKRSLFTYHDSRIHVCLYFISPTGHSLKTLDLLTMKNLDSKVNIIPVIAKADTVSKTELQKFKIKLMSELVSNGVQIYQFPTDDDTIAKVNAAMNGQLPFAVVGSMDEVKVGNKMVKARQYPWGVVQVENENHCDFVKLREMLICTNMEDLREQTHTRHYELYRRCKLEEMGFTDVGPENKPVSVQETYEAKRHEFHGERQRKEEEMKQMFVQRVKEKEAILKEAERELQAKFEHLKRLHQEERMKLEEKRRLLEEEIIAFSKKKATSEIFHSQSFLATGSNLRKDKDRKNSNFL

Tests used:
Assay in all cases: log2 fold change, soluble protein after heating vs DMSO (PISA); higher = thermal stabilisation; K562 cells, 10 uM, 30 min; active = over 0.2 and 3.5 SD of the protein, either way, in both replicates (recomputed)
[1] = compound: CN1CCN(CCOc2cc(OC3CCOCC3)c3c(Nc4c(Cl)ccc5c4OCO5)ncnc3c2)CC1 [saracatinib]
Method in brief: (§1)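 For each measurement, 10 μM compound was applied for 30 min to K562 cells at 2×10^6 cells/mL. Aliquots were heated for 3 min across 48°C-58°C, pooled, and extracted in PBS with 0.5% NP-40 at 4°C; the supernatant after 21,000xg for 90 min was soluble protein. This was quantified by TMTpro 16plex LC-MS/MS with channel sums equalised, and thermal stability was reported relative to control samples from duplicates, on a log2 fold-change scale.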

[2] = compound: CN1CCN(c2nc(C3=C(c4c[nH]c5ccccc45)C(=O)NC3=O)c3ccccc3n2)CC1 [sotrastaurin]
Method in brief: as §1

[3] = compound: CN1CC[C@H](c2c(O)cc(O)c3c(=O)cc(-c4ccccc4Cl)oc23)[C@H](O)C1 [alvocidib]
Method in brief: as §1

[4] = compound: CN1CCc2c(c3ccccc3n2Cc2ccc(C(=O)NO)cc2)C1 [Tubastatin A]
Method in brief: as §1

[5] = compound: CNC(=O)C1=CC=CC=C1NC2=NC(=NC=C2Cl)NC3=C(C=C(C=C3)N4CCOCC4)OC
Method in brief: as §1

[6] = compound: CNC(=O)c1ccc(Nc2ncc(C(F)(F)F)c(NCc3nccnc3N(C)S(C)(=O)=O)n2)cc1 [defactinib]
Method in brief: as §1

[7] = compound: CNCc1ccc(-c2[nH]c3cc(F)cc4c3c2CCNC4=O)cc1 [rucaparib]
Method in brief: as §1

[8] = compound: CNc1nc(-c2ccc3c(N)n[nH]c3c2)cc(N2C[C@@H](C(=O)NC3CCCCC3)CC[C@H]2C)n1
Method in brief: as §1

[9] = compound: COC(=O)N[C@@H](C)CNc1nccc(-c2cn(C(C)C)nc2-c2cc(Cl)cc(NS(C)(=O)=O)c2F)n1 [encorafenib]
Method in brief: as §1

[10] = compound: COC(=O)[C@H](CCSC)NC(=O)C1=C(C=C(C=C1)NC[C@H](CS)N)C2=CC=CC=C2
Method in brief: as §1

Measured: log2 fold change

SHKBP1 (UniProt Q8TBC3)
inactive: [1] 0.046 | [2] 0.06 | [3] -0.004 | [4] -0.02 | [5] 0.014 | [6] 0.036 | [7] -0.059 | [8] -0.03 | [9] -0.004 | [10] -0.029

SIRT5 (UniProt Q9NXA8)
inactive: [1] 0.051 | [2] -0.068 | [3] 0.021 | [4] -0.002 | [5] -0.015 | [6] -0.043 | [7] 0.041 | [8] 0.009 | [9] -0.115 | [10] -0.083

SH3GLB1 isoform 2 (UniProt Q9Y371)
inactive: [1] -0.15 | [2] -0.139 | [3] -0.083 | [4] 0.057 | [5] 0.029 | [6] -0.076 | [7] 0.061 | [8] 0.011 | [9] 0.132 | [10] 0.031

SEC63 (UniProt Q9UGP8)
inactive: [1] 0.043 | [2] 0.02 | [3] -0.004 | [4] -0.017 | [5] -0.001 | [6] -0.019 | [7] -0.015 | [8] -0.015 | [9] 0.006 | [10] -0.002

SGF29 (UniProt Q96ES7)
inactive: [1] 0.045 | [2] 0.013 | [3] -0.022 | [4] 0.012 | [5] -0.023 | [6] -0.094 | [7] 0.015 | [8] -0.057 | [9] 0.029 | [10] -0.013

SGO1 (UniProt Q5FBB7)
inactive: [1] -0.068 | [2] -0.067 | [3] -0.027 | [4] 0.051 | [5] -0.034 | [6] -0.025 | [7] 0.01 | [8] 0.006 | [9] 0 | [10] -0.011

SERPINB6, A0A087X1N8
inactive: [1] 0.073 | [2] -0.012 | [3] -0.01 | [4] -0.055 | [5] 0.023 | [6] 0 | [7] -0.026 | [8] 0.007 | [9] -0.015 | [10] 0.053

SF3B2 (UniProt Q13435)
inactive: [1] -0.03 | [2] -0.08 | [3] 0.089 | [4] 0.037 | [5] -0.018 | [6] 0.069 | [7] 0.088 | [8] -0.009 | [9] 0.085 | [10] -0.016

SETDB1 (UniProt Q15047)
inactive: [1] -0.041 | [2] -0.013 | [3] -0.055 | [4] 0.185 | [5] -0.067 | [6] -0.068 | [7] 0.098 | [8] 0.055 | [9] -0.004 | [10] -0.032

SIL1 (UniProt Q9H173)
inactive: [1] -0.012 | [2] -0.026 | [3] 0.05 | [4] 0.049 | [5] 0.013 | [6] -0.069 | [7] 0.04 | [8] -0.021 | [9] 0.071 | [10] 0.037

SERPINB8 (UniProt P50452)
inactive: [1] 0.051 | [2] -0.008 | [3] 0.088 | [4] -0.068 | [5] -0.06 | [6] -0.016 | [7] -0.103 | [8] -0.05 | [9] -0.034 | [10] 0.049

SHTN1 isoform 3 (UniProt A0MZ66)
inactive: [1] -0.037 | [2] -0.073 | [3] -0.028 | [4] 0.039 | [5] 0.106 | [6] -0.015 | [7] -0.013 | [8] -0.009 | [9] 0.057 | [10] -0.008

SEPTIN7 (UniProt Q16181)
inactive: [1] 0.109 | [2] 0.025 | [3] -0.057 | [4] -0.005 | [5] -0.031 | [6] -0.043 | [7] -0.086 | [8] 0.073 | [9] 0.012 | [10] 0.005

SH3BGRL2 (UniProt Q9UJC5)
inactive: [1] -0.002 | [2] 0.033 | [3] -0.15 | [4] -0.017 | [5] 0.041 | [6] -0.012 | [7] 0.135 | [8] -0.097 | [9] 0 | [10] -0.076

SF3B3 (UniProt Q15393)
inactive: [1] 0.009 | [2] 0.009 | [3] 0.008 | [4] -0.005 | [5] 0.017 | [6] 0.058 | [7] 0.011 | [8] -0.007 | [9] 0.016 | [10] -0.045

SEPTIN4 isoform 4 (UniProt O43236)
inactive: [1] 0.106 | [2] -0.135 | [3] -0.196 | [4] 0.052 | [5] 0.033 | [6] -0.033 | [7] -0.35 | [8] 0.019 | [9] 0.283 | [10] -0.049

SF3A3 (UniProt Q12874)
inactive: [1] -0.186 | [2] -0.126 | [3] -0.028 | [4] 0.08 | [5] 0.062 | [6] 0.006 | [7] 0.078 | [8] -0.027 | [9] 0.103 | [10] -0.011

SERF2 (UniProt P84101)
inactive: [1] 0.142 | [2] 0.033 | [3] 0.152 | [4] 0.066 | [5] -0.053 | [6] 0.004 | [7] -0.027 | [8] 0.029 | [9] -0.042 | [10] 0.073

SF1 isoform 6 (UniProt Q15637)
inactive: [1] 0.015 | [2] 0.012 | [3] -0.269 | [4] -0.125 | [5] 0.109 | [6] -0.059 | [7] 0.095 | [8] 0.035 | [9] -0.142 | [10] -0.019

SH3BGRL (UniProt O75368)
inactive: [1] -0.025 | [2] -0.147 | [3] -0.055 | [4] 0.006 | [5] -0.013 | [6] -0.022 | [7] -0.014 | [8] 0.009 | [9] -0.004 | [10] -0.057

SEPTIN8 (UniProt Q92599)
inactive: [1] 0.039 | [2] 0.01 | [3] -0.022 | [4] -0.028 | [5] -0.013 | [6] -0.03 | [7] -0.058 | [8] 0.008 | [9] -0.005 | [10] -0.013

SERPINC1 (UniProt P01008)
inactive: [1] 0.305 | [2] 0.277 | [3] 0.125 | [4] -0.175 | [5] 0.179 | [6] -0.053 | [7] -0.16 | [8] 0.032 | [9] -0.027 | [10] 0.19

Two successive entries out of the list so far, quoted:
SEC63 (UniProt Q9UGP8)
inactive: [1] 0.043 | [2] 0.02 | [3] -0.004 | [4] -0.017 | [5] -0.001 | [6] -0.019 | [7] -0.015 | [8] -0.015 | [9] 0.006 | [10] -0.002

SGF29 (UniProt Q96ES7)
inactive: [1] 0.045 | [2] 0.013 | [3] -0.022 | [4] 0.012 | [5] -0.023 | [6] -0.094 | [7] 0.015 | [8] -0.057 | [9] 0.029 | [10] -0.013

Next records follow.

SEPHS2 (UniProt Q99611)
inactive: [1] 0.078 | [2] -0.008 | [3] -0.022 | [4] -0.008 | [5] -0.034 | [6] -0.023 | [7] -0.133 | [8] 0.043 | [9] 0.07 | [10] 0.004

SH3BP5L (UniProt Q7L8J4)
inactive: [1] -0.01 | [2] -0.408 | [3] -0.01 | [4] 0.018 | [5] 0.016 | [6] -0.064 | [7] 0 | [8] 0.152 | [9] 0.095 | [10] -0.001

SEMA4B (UniProt Q9NPR2)
inactive: [1] 0.133 | [2] -0.021 | [3] -0.058 | [4] -0.043 | [5] 0.111 | [6] -0.085 | [7] -0.038 | [8] -0.002 | [9] 0.051 | [10] 0.061

SH3BGRL3 (UniProt Q9H299)
inactive: [1] 0.02 | [2] -0.042 | [3] -0.032 | [4] -0.01 | [5] 0.013 | [6] -0.003 | [7] -0.03 | [8] 0.006 | [9] 0.021 | [10] 0.023

SFXN2 (UniProt Q96NB2)
inactive: [1] -0.016 | [2] 0.027 | [3] -0.006 | [4] 0.053 | [5] 0.008 | [6] -0.038 | [7] -0.071 | [8] 0.006 | [9] -0.017 | [10] -0.057

SIRT1 (UniProt Q96EB6)
inactive: [1] 0.015 | [2] -0.012 | [3] -0.09 | [4] 0.042 | [5] 0.04 | [6] -0.151 | [7] 0.007 | [8] 0.04 | [9] -0.049 | [10] -0.021

SEPTIN10 isoform 2 (UniProt Q9P0V9)
inactive: [1] 0.059 | [2] -0.01 | [3] 0.102 | [4] -0.1 | [5] -0.032 | [6] -0.048 | [7] -0.06 | [8] 0.02 | [9] -0.069 | [10] 0.046

SEC61A2 (UniProt Q9H9S3)
inactive: [1] 0.087 | [2] -0.014 | [3] -0.017 | [4] -0.022 | [5] 0.007 | [6] -0.016 | [7] -0.09 | [8] -0.023 | [9] 0.011 | [10] -0.009
